{"sequences": {"note": "Chains of the proteins cited; added tags and fusions are not shown. Lines headed by an entry give the natural chain unless they say otherwise; changes in a name come on top.", "UniProt P51450": "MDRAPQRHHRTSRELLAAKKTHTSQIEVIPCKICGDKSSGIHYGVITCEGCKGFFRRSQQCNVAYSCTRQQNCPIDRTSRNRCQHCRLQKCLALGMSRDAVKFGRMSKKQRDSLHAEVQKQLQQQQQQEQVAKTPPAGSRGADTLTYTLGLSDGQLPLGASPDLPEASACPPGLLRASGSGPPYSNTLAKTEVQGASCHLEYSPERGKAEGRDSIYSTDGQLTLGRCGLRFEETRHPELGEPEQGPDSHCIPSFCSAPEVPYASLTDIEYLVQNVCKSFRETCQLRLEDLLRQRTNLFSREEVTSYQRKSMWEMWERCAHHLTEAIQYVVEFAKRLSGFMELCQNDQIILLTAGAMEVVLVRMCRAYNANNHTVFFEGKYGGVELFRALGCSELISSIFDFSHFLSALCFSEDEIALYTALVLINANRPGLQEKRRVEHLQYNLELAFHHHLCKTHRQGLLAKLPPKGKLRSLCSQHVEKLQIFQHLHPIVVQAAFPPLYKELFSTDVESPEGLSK"}, "source": "PubChem BioAssay AID2551", "about": "(National Center for Advancing Translational Sciences (NCATS), 2010)", "note": "Among all 310,000 compounds or so, about 17,000 (5.5%) were called active. Inconclusive means that the source gave no clear call. Such entries were picked first, then a sample of the others. The call rests on the fitted dose curve; in most records, active means well fitted inhibition curve with a large enough effect; inconclusive means small, poorly fitted or top-dose-only effect, or effect the other way; inactive means no such curve, though single readings can be large or run the other way. Where the call is inconclusive, the potency comes from a doubtful curve fit. On the % scale 0 is the no-effect control and ±100 the full control effect; potency means the concentration at half of the fitted maximal effect.", "data": [{"target": "Nuclear receptor ROR-gamma (Mus musculus) (UniProt P51450)", "assay": "qHTS for inhibitors of ROR gamma transcriptional activity; further: nearly all actives have a fitted effect of over 60% in size", "conditions": "Drosophila S2 Gal4-RORgamma UAS-luciferase reporter, 20 h; activity change, negative = inhibition: at 53.6 µM (top of the series)", "method_in_brief": "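Stably transfected Drosophila Schneider cells are the test system, with ROR gamma fused to Gal4 and luciferase under UAS control; luminescence is read after 20 hr of 700 uM copper sulfate induction at ambient temperature.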", "values": [{"smiles": "CCNc1nc(CN2CCOCC2)nc2sc3c(c12)CCC3", "Potency": "inconclusive: 17.8 µM [inhibitor, partial curve]"}, {"smiles": "Fc1ccc(C2=CC(c3ccc(Br)o3)n3ncnc3N2)cc1", "note": "(stereo not drawn)", "Potency": "inconclusive: 35.5 µM [inhibitor, single point]"}, {"smiles": "COc1ccc(-c2noc(CSc3nnc(-c4ccccc4)n3C)n2)cc1", "Potency": "inconclusive: 11.2 µM [activator, single point]"}, {"smiles": "O=C(Cn1c(=O)oc2ccccc21)Nc1ccc(S(=O)(=O)N2CCCCC2)cc1", "Potency": "inconclusive: 14.1 µM [inhibitor, single point]"}, {"smiles": "CN(C)N1C(N)=C(C#N)C(c2cccs2)C2=C1CC(C)(C)CC2=O", "note": "(stereo not drawn)", "activity change, negative = inhibition": "inactive: -0.249%"}, {"smiles": "O=C(NNC(=O)c1ccco1)c1cccc(Br)c1", "activity change, negative = inhibition": "inactive: 18.9%"}, {"smiles": "COc1cccc(CNc2ccc3[nH]c(=O)[nH]c3c2)c1OCc1ccc(F)cc1", "Potency": "inconclusive: 11.2 µM [activator, partial curve]"}, {"smiles": "Cc1ccc(/C=N/NC(=O)c2ccc(Br)o2)s1", "Potency": "active: 8.91 µM"}, {"smiles": "NC(=O)CSc1nnc(-c2ccc3c(c2)OCO3)o1", "Potency": "inconclusive: 12.6 µM [inhibitor, partial curve, poor fit]"}, {"smiles": "CCCNC(=O)N1CCC(c2nc3ccccc3s2)CC1", "activity change, negative = inhibition": "inactive: 15.2%"}, {"smiles": "Cc1ccc(NC(=O)c2ccc(NS(=O)(=O)c3c(C)noc3C)cc2)cc1C", "activity change, negative = inhibition": "inactive: 16.6%"}, {"smiles": "OCC#CCSc1nnc(-c2ccncc2)o1", "Potency": "inconclusive: 35.5 µM [inhibitor, single point]"}, {"smiles": "CCOc1ccc(-n2cc(-c3ccccc3)c3c(=S)nc[nH]c32)cc1", "Potency": "active: 1 µM"}, {"smiles": "O=C(NCc1ccco1)C(=O)NCc1ccccc1Cl", "Potency": "inconclusive: 2.51 µM [activator, full curve]"}, {"smiles": "CCc1nn(C(CC)C(=O)NCc2cccc(OC)c2OC)c(=O)c2cc3occc3n12", "note": "(stereo not drawn)", "Potency": "inconclusive: 14.1 µM [activator, single point]"}, {"smiles": "COc1cccc(OC)c1C1=Nn2c(nnc2-c2ccccc2O)SC1", "Potency": "inconclusive: 20 µM [inhibitor, single point]"}, {"smiles": "O=S(=O)(Nc1cccc(-c2cn3c(n2)SCC3)c1)c1ccc(F)cc1F", "Potency": "inconclusive: 0.891 µM [inhibitor, partial curve]"}, {"smiles": "O=C(c1ccc2c(=O)n(Cc3ccco3)c(=S)[nH]c2c1)N1CCN(Cc2ccccc2)CC1", "Potency": "inconclusive: 35.5 µM [inhibitor, single point]"}, {"smiles": "COc1ccc(C(=O)C2CCCN(C(=O)CCc3scnc3C)C2)c(C)c1", "note": "(stereo not drawn)", "Potency": "inconclusive: 17.8 µM [inhibitor, single point]"}, {"smiles": "O=C(COc1ccccc1[N+](=O)[O-])Nc1ccc(N2CCN(C(=O)c3cccs3)CC2)cc1", "activity change, negative = inhibition": "inactive: 34.7%"}, {"smiles": "CN=C1S/C(=C\\c2ccc(N3CCOCC3)c(F)c2)C(=O)N1C", "Potency": "inconclusive: 1.58 µM [activator, partial curve]"}, {"smiles": "CCOc1ccc(N2C(=O)CC(N(O)c3ccccc3)C2=O)cc1", "note": "(stereo not drawn)", "Potency": "inconclusive: 2.51 µM [activator, full curve]"}, {"smiles": "COc1ccc2nc(NNC(=O)COc3ccccc3)sc2c1", "Potency": "active: 7.08 µM"}, {"smiles": "CC(C)(C)c1ccc(Cn2nnc3c(=O)[nH]c(C4CCCN(C(=O)Cc5cccs5)C4)nc32)cc1", "note": "(stereo not drawn)", "Potency": "inconclusive: 14.1 µM [activator, single point]"}, {"smiles": "COc1ccc(C(=O)N/C(=C\\c2cn(C)c3ccccc23)C(=O)N2CCN(C)CC2)cc1OC", "activity change, negative = inhibition": "inactive: -2.74%"}, {"smiles": "O=C(O)CSc1cccc2cccnc12", "Potency": "inconclusive: 17.8 µM [inhibitor, single point]"}, {"smiles": "Cc1cc(Cl)ccc1Oc1ccc(C(N)=O)cc1[N+](=O)[O-]", "activity change, negative = inhibition": "inactive: -14.3%"}, {"smiles": "c1ccc(-c2noc(-c3ccc4ccccc4c3)n2)nc1", "Potency": "active: 2.51 µM"}, {"smiles": "Cc1cccc(NC(=S)NNC(=O)c2ccccc2OC(F)F)c1", "Potency": "inconclusive: 0.891 µM [inhibitor, single point]"}, {"smiles": "COc1ccc(/C=C2\\C(=O)N(c3c(Cl)cc(Cl)cc3Cl)N=C2NC(=O)c2cccc([N+](=O)[O-])c2)cc1", "activity change, negative = inhibition": "inactive: 41.2% [at 10 µM]"}, {"smiles": "CCOc1ccccc1C(C(=O)NC1CCCC1)N(C(=O)c1csnn1)C1CC1", "note": "(stereo not drawn)", "activity change, negative = inhibition": "inactive: -16.2%"}, {"smiles": "Cc1cc(OCc2cc(C(=O)N3CCCCCC3)no2)cc(C)c1Cl", "Potency": "inconclusive: 2.51 µM [activator, full curve]"}, {"smiles": "Cc1cccc(S(=O)(=O)Nc2ccc(-c3nc4ccc(C)cc4s3)cc2)c1", "Potency": "active: 5.62 µM"}, {"smiles": "Cn1c(C(C#N)C(=O)c2ccco2)nc2ccccc21", "note": "(stereo not drawn)", "Potency": "inconclusive: 31.6 µM [inhibitor, single point]"}, {"smiles": "COc1ccc(C(=O)N=c2sc3ccccc3n2C)cc1OC", "activity change, negative = inhibition": "inactive: 15.6%"}, {"smiles": "Cc1cccc(OCCSc2nnc(-c3ccoc3C)n2C)c1", "activity change, negative = inhibition": "inactive: 10.1% [at 10 µM]"}, {"smiles": "C(=N\\Nc1ccccn1)/c1ccc(N2CCOCC2)cc1", "Potency": "inconclusive: 11.2 µM [inhibitor, partial curve, poor fit]"}, {"smiles": "Cc1[nH]n2c(=O)c3c(nc2c1-c1cccc2ccccc12)CCC3", "Potency": "active: 12.6 µM"}, {"smiles": "COc1ccc(C=NCCCN2CCOCC2)cc1", "activity change, negative = inhibition": "inactive: -11.2%"}, {"smiles": "Cc1cc(C)c2nc(NC(=O)C3CC(=O)N(Cc4ccco4)C3)sc2c1", "note": "(stereo not drawn)", "Potency": "inconclusive: 15.8 µM [activator, single point]"}, {"smiles": "CCOc1cc(C(c2c(C)[nH][nH]c2=O)c2c(C)[nH][nH]c2=O)cc([N+](=O)[O-])c1O", "Potency": "inconclusive: 35.5 µM [inhibitor, single point]"}, {"smiles": "O=[N+]([O-])c1ccc(/C=N/NC(=S)Nc2ccccc2)o1", "Potency": "inconclusive: 5.62 µM [inhibitor, single point]"}, {"smiles": "COc1ccccc1C1CC(=O)Oc2cc(OC)c(OC)c(OC)c21", "note": "(stereo not drawn)", "Potency": "inconclusive: 14.1 µM [inhibitor, partial curve]"}, {"smiles": "Cc1ccccc1CN1CCN(Cc2ccc3cccc(F)c3n2)CC1CCO", "note": "(stereo not drawn)", "activity change, negative = inhibition": "inactive: 3.48%"}, {"smiles": "COC(=O)C1=CN(Cc2cccs2)C=C(C(=O)OC)C1c1cccc(Cl)c1", "Potency": "inconclusive: 12.6 µM [activator, partial curve]"}, {"smiles": "CC1CCN(S(=O)(=O)c2cc(Br)cc(C(=O)NC3=NCCS3)c2)CC1", "Potency": "inconclusive: 20 µM [inhibitor, single point]"}, {"smiles": "COC(=O)c1ccc(CSc2nnc(CS(=O)Cc3ccc(Br)cc3)n2-c2ccccc2)cc1", "note": "(stereo not drawn)", "Potency": "inconclusive: 11.2 µM [activator, partial curve]"}, {"smiles": "O=C(CSCc1ccc(F)cc1)Nc1ccccc1", "Potency": "inconclusive: 0.282 µM [activator, full curve, poor fit]"}, {"smiles": "CCC1CCCCN1c1nc(-c2ccncc2)nc2ccccc12", "note": "(stereo not drawn)", "Potency": "inconclusive: 11.2 µM [inhibitor, partial curve]"}, {"smiles": "COc1ccc(C(NC(=O)c2cccnc2)c2cc(Cl)c3cccnc3c2O)cc1OC", "note": "(stereo not drawn)", "Potency": "active: 2 µM"}, {"smiles": "CN(C)c1ccc(/C=N/n2c(-c3ccccc3Br)n[nH]c2=S)cc1", "Potency": "active: 3.55 µM"}, {"smiles": "CC(C)c1ccc(/C=C2\\CC/C(=C\\C=N\\N(C)C)C2=O)cc1", "Potency": "inconclusive: 35.5 µM [inhibitor, single point]"}, {"smiles": "Cc1ccc2oc(-c3ccc(C)c(NC(=S)NC(=O)c4cccs4)c3)nc2c1", "Potency": "active: 7.08 µM"}, {"smiles": "COc1ccc(N/C=C2\\CCc3ccccc3C2=O)cc1", "Potency": "active: 8.91 µM"}, {"smiles": "O=c1c(Cc2ccc(Cl)cc2)c(O)ccn1Cc1cccc(Cl)c1", "Potency": "inconclusive: 5.62 µM [inhibitor, single point]"}, {"smiles": "O=C(COc1ccc(Cl)cc1Cl)N/N=C/c1ccccn1", "Potency": "active: 12.6 µM"}, {"smiles": "O=C(NC1CCN(Cc2ccccc2)CC1)c1ccc(S(=O)(=O)NCc2ccco2)cc1", "Potency": "inconclusive: 12.6 µM [activator, single point]"}, {"smiles": "CC1=NN(c2nc(-c3ccccc3)cs2)C(=O)C1N=Nc1ccccc1", "note": "(stereo not drawn)", "Potency": "active: 7.08 µM"}, {"smiles": "COc1ccccc1N1CCN(S(=O)(=O)c2ccc(-c3cnc(C4CC4)o3)cc2)CC1", "Potency": "inconclusive: 12.6 µM [activator, single point]"}, {"smiles": "O=C(CCS(=O)(=O)c1ccc(Br)cc1)N1CCN(c2ccc(Cl)cc2)CC1", "Potency": "inconclusive: 11.2 µM [activator, single point]"}, {"smiles": "Cc1nc2ccccc2nc1N/N=C/c1ccc(O)cc1", "Potency": "inconclusive: 17.8 µM [inhibitor, single point]"}, {"smiles": "COC(=O)c1cc(NC(=O)c2c(Cl)nc3sccn23)cc(C(=O)OC)c1", "Potency": "inconclusive: 2.82 µM [activator, partial curve]"}, {"smiles": "COc1ccc(C(=O)C[n+]2ccc3c(c2)nc(-c2ccc(OC)cc2OC)n3C)cc1", "Potency": "inconclusive: 15.8 µM [activator, partial curve]"}, {"smiles": "Clc1ccc(CNC2CCCC2)c(Cl)c1", "activity change, negative = inhibition": "inactive: 4.84%"}, {"smiles": "COc1ccc(C[C@H]2CN3C(=NC[C@@H]3Cc3ccccc3)N2C[C@H](C)NC(=O)CCC2CCCCC2)cc1", "Potency": "inconclusive: 2.51 µM [inhibitor, single point]"}, {"smiles": "O=C(N/N=C/c1ccc(N2CCOCC2)cc1)c1cccs1", "Potency": "inconclusive: 35.5 µM [inhibitor, single point]"}, {"smiles": "CCOC(=O)Cc1ccc(NC(=O)c2ccc(C(C)(C)C)cc2)cc1", "Potency": "active: 0.199 µM"}, {"smiles": "CCSc1nnc(NC(=O)CSc2nccn2-c2cc(C)cc(C)c2)s1", "Potency": "active: 14.1 µM"}, {"smiles": "CCCCOC(=O)Sc1nc2ccccc2o1", "Potency": "inconclusive: 10 µM [inhibitor, single point]"}, {"smiles": "CCCCc1ccc(NC(=S)NCc2cccs2)cc1", "Potency": "active: 2.24 µM"}, {"smiles": "COC(=O)c1ccc(C(=O)N2CCCC(Nc3ccc(F)c(F)c3)C2)cc1", "note": "(stereo not drawn)", "activity change, negative = inhibition": "inactive: -22.3%"}, {"smiles": "CC1CCCC(C)N1CC(O)Cn1c2ccccc2c2ccccc21", "note": "(stereo not drawn)", "activity change, negative = inhibition": "inactive: 1.04%"}, {"smiles": "Cc1nn(C)c(C)c1S(=O)(=O)N(CC(=O)NCCCN1CC(C)CC(C)C1)c1ccc(C(C)C)cc1", "note": "(stereo not drawn)", "activity change, negative = inhibition": "inactive: 7.81%"}]}]}
